From patent publication US6261767A, “Method for the qualitative and quantitative detection of DNA damage” (Societe Francaise de Recherches et d'Investissements (SFRI), priority 1995, dated 2001)
At least one read-out could not be matched to a standard name with certainty.

Tests used:
[1] = system: DNA damage generated by hydrogen peroxide; experiment: inhibition of / antioxidant relative activity (R.A.) against DNA damage by hydrogen peroxide; format: biochemical
[2] = system: DNA damage generated by methylene blue; experiment: antioxidant relative activity (R.A.) against DNA damage by photo-activated methylene blue; format: biochemical; settings: methylene blue 50 ng/ml, visible light 20 min
Procedure: b/ Methylene blue is known to liberate by photo-activation, one atom of oxygen. For the tests to follow, methylene blue was subjected to radiation with visible light for 20 minutes with two bulb lamps of 100 W, a distance between the lamps and the support plates of 30 cm and a concentration of methylene blue of 50 ng/ml. The step of repair of the damage is carried out according to the information indicated above, with the use of the same reaction medium RM. In the same fashion, the plates, after the action of the reaction medium RM are washed three times with the washing solution indicated above, and incubated 15 minutes with a chemiluminescent substrate ("Lumi-Phos 530"). […] For the second test, with methylene blue, the relative activity RA has been calculated of an antioxidant which is equal to: [formula] in which formula: control RLU corresponds to the value of the signal of methylene blue alone subjected to radiation, test RLU corresponds to the value of the signal of methylene blue subjected to […] radiation plus an antioxidant molecule, and reference RLU corresponds to the value of the signal of the antioxidant molecule alone.

With O=C1O[C@H]([C@@H](O)CO)C(O)=C1O [Vitamin C] the “R.A. (with H2 O2)” value ([1]; 1 μM) was 0.56, the “R.A. (with H2 O2)” value ([1]; 10^-1 μM, 0.1 µM) was 0.45 and the “R.A. (with H2 O2)” value ([1]; 10^-2 μM, 0.01 µM) was 0.30. For the same compound, the “R.A. (with H2 O2)” value ([1]; 10^-3 μM, 0.001 µM) was 0.19, the “R.A. (with H2 O2)” value ([1]; 10^-4 μM, 0.0001 µM) was 0.20 and the “R.A. (with H2 O2)” value ([1]; 10^-5 μM, 10 pM) was 0.12. The “R.A. (with MB)” value ([2]; 1 μM) was -1.2, the “R.A. (with MB)” value ([2]; 10^-1 μM, 0.1 µM) was 0.28 and the “R.A. (with MB)” value ([2]; 10^-2 μM, 0.01 µM) was 0.24. The “R.A. (with MB)” value ([2]; 10^-3 μM, 0.001 µM) was 0.21, the “R.A. (with MB)” value ([2]; 10^-4 μM, 0.0001 µM) was 0.39 and the “R.A. (with MB)” value ([2]; 10^-5 μM, 10 pM) was 0.22.
